In publication PMC6023610:
No constants are given. Whether binding was seen depends on the method and setting. In cells and extracts the contact can be indirect. Binding can be weak; no strength is given. Where a sequence is shown, tags or fusion partners need not be part of it. Blank lines part the entries; values can stand above or below the molecule they belong to.

Sequences of proteins named here, by UniProt entry; tags and fusion partners are left off. A change or cut given only in a name is not applied to a line headed by its entry.
UniProt Q5CZV3: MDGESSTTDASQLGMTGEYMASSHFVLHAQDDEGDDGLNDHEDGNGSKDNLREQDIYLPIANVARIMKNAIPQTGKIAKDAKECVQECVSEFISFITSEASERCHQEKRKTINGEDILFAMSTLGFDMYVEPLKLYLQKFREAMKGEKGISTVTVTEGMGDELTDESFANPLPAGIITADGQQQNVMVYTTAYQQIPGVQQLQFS
UniProt A0A8M1PCG7: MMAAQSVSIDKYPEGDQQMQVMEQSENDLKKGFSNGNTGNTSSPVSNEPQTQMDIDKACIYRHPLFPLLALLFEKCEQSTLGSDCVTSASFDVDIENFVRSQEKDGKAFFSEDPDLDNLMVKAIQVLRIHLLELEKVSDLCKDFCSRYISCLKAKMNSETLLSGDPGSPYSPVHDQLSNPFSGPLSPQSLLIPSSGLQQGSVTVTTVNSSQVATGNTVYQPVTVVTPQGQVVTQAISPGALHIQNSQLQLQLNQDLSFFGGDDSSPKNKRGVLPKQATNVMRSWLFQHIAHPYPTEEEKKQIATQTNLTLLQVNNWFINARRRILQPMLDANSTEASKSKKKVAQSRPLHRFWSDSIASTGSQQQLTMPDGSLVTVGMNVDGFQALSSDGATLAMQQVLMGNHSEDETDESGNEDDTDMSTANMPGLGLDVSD

Key:
[1] = target: Flag-NF-YB (zebrafish) (UniProt Q5CZV3); assay: co-IP; pairwise combinations co-transfected in HEK293 (HEK-293T) cells; lysis and five washes in Co-IP Buffer (50 mM Tris-HCl pH 7.5, 150 mM NaCl, 0.2 mM EDTA, 1 mM DTT, 0.5% Triton X100); 8 ug antibody overnight at 4°C, Protein A/G Agarose beads; Western blot
[2] = target: Flag-NF-YA (zebrafish); assay: as above

binding [1]: binds
binding [2]: binds
Molecule: 6xMyc-Prep1.1 (from UniProt A0A8M1PCG7)

binding [1]: binds
binding [2]: binds
B1: HA-Pbx4 (protein, UniProt Q9PW77 1-343)
chain: MDDQTRMLASMGGLGGLSQADVGDPDSVRKQQSLGQPQQDIGDILQQIMAITDESLDEAQARKHALNCHRLKPALFSVLCEIKEKTVLSIRGVQEEDPPDPQIMRLDNMLLAEGVSGPEKGGGSAAAAAAAAAAGGSPNDGSIEHSDYRAKLAQIRQIYHSELEKYEQACSEFTNHVMNLLREQSRTRPISPKEIERMVAIIHRKFSSIQMQLKQSTCEAVMILRSRFLDARRKRRNFNKQATEVLNEYFYSHLSNPYPSEEAKEELAKKCGITVSQVSNWFGNKRIRYKKNIGKFQEEANLYAVKTAVDAANVSAQASQANSPATPNSGGYPAPCYTPDGRL
